Test results published in article PMC5566378.
These are yes or no findings as the source states them, for the method shown. Some entries that bind do so weakly or less than the wild type.

Columns and labels:
[1] = molecular target: T1, human IL-17RC extracellular domain (human) (UniProt Q8NAC3); test: SPR; Biacore 8K; IL-17RC ECD amine-coupled on a CM4 chip (about 500 RU); cytokines as analytes in PBS pH 7.4, 3 mM EDTA, 0.05% Tween20; 20 °C, 30 µl/min; 1:1 Langmuir model or steady-state analysis; both purified
T1 sequence: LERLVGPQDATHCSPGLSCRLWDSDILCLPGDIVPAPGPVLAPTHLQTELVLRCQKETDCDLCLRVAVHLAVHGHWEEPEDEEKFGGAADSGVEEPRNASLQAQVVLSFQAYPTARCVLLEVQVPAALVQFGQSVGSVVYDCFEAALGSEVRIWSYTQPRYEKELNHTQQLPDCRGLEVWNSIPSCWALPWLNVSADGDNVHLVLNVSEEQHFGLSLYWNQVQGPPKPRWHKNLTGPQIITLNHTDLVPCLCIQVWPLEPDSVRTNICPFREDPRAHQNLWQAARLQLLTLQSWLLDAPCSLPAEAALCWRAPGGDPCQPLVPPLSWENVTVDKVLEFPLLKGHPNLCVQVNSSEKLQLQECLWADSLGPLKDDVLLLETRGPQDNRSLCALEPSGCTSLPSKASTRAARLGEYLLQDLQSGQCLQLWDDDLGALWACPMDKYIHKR

[2] = molecular target: human IL-17RA extracellular domain (human), Q96F46; test: crystal structure; IL-17A/F with IL-17RA ECD, deglycosylated complex; monoclinic crystals, 0.1 M HEPES pH 7.5, 15% PEG MME 5000, 0.05 M ammonium acetate, 20 °C; 3.3 Å; two complexes in the asymmetric unit; both purified; details: remark: other sources report otherwise
[3] = molecular target: human IL-17RA extracellular domain (human), Q96F46; test: SPR; Biacore 8K; biotinylated IL-17RA ECD immobilised on a streptavidin chip (about 500 RU); cytokines as analytes in PBS pH 7.4, 3 mM EDTA, 0.05% Tween20; 20 °C, 30 µl/min; 1:1 Langmuir model or steady-state analysis; both purified; details: remark: other sources report otherwise

B1: human IL-17F homodimer (ligand, UniProt Q96PD4 31-163)
chain: RKIPKVGHTFFQKPESCPPVPGGSMKLDIGIINENQRVSMSRNIESRSTSPWNYTVTWDPNRYPSEVVQAQCRNLGCINAQGKEDISMNSVPIQQETLVVRRKHQGCSVSFQLEKVLVTVGCTCVTPVIHHVQ
binding [1]: binds

B2: IL-17F chain of the human IL-17A/F heterodimer, Q96PD4 31-163 (protein)
chain: RKIPKVGHTFFQKPESCPPVPGGSMKLDIGIINENQRVSMSRNIESRSTSPWNYTVTWDPNRYPSEVVQAQCRNLGCINAQGKEDISMNSVPIQQETLVVRRKHQGCSVSFQLEKVLVTVGCTCVTPVIHHVQ
modifications: here or on the partner: N-linked glycosylation at Asn83 (seen in the crystal); biotin on the Avi-tag (E. coli BirA), for the SPR measurements only
binding [2]: binds

B3: human IL-17F homodimer, Q96PD4 31-163 (protein)
chain: RKIPKVGHTFFQKPESCPPVPGGSMKLDIGIINENQRVSMSRNIESRSTSPWNYTVTWDPNRYPSEVVQAQCRNLGCINAQGKEDISMNSVPIQQETLVVRRKHQGCSVSFQLEKVLVTVGCTCVTPVIHHVQ
modifications: here or on the partner: biotin on the Avi-tag (E. coli BirA), for the SPR measurements only
binding [3]: binds
